In paper PMC11570952:
These are yes or no findings as the source states them, for the method shown. For some of these results: In cells and extracts the contact can be indirect. Some binding calls cover weakened binding; strength is not graded here. For some of these results: Where a sequence is shown, tags or fusion partners need not be part of it. Values belong to the molecule of their own block, whether it stands above or below them.

Protein sequences, listed by entry. Tags and fused reporters are not part of them. Residues count along the entry.
UniProt P49790: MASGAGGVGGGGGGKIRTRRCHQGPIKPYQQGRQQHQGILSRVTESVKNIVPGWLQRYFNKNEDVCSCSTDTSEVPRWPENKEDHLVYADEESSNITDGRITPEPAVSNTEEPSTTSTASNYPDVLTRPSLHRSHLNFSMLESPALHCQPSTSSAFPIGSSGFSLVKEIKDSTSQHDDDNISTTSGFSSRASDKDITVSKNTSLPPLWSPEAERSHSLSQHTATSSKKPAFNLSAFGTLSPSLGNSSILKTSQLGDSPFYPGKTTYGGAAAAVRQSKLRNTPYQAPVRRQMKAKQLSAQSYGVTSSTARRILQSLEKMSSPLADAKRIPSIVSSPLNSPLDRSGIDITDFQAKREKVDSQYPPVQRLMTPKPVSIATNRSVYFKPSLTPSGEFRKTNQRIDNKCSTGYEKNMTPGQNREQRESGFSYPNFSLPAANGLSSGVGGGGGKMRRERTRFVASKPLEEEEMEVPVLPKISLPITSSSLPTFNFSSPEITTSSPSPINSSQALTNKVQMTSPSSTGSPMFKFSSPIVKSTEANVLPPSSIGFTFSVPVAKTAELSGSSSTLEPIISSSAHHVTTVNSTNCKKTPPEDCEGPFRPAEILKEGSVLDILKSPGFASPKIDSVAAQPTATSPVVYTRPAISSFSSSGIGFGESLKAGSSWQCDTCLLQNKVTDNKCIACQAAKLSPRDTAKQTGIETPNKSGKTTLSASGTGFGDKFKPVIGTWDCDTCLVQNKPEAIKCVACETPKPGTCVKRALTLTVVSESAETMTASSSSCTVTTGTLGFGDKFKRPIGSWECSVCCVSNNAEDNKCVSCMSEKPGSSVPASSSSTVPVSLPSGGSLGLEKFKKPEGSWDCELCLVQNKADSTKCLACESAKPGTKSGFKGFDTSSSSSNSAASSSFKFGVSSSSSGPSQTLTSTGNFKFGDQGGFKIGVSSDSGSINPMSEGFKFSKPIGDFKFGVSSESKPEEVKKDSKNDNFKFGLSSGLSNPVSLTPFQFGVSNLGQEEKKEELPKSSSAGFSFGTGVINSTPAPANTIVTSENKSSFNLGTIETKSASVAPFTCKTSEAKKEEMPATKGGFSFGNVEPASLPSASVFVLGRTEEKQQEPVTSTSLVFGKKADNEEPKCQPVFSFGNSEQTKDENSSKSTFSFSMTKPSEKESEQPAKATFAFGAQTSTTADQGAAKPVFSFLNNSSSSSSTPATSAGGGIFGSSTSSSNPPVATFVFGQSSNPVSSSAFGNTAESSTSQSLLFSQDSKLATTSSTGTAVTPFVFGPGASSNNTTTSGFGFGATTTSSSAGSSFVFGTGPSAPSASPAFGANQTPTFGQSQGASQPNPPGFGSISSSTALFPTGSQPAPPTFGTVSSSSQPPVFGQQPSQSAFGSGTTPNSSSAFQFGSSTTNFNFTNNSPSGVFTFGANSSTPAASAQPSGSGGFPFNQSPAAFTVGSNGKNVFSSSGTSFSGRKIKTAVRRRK
UniProt P52948, residues 1-880: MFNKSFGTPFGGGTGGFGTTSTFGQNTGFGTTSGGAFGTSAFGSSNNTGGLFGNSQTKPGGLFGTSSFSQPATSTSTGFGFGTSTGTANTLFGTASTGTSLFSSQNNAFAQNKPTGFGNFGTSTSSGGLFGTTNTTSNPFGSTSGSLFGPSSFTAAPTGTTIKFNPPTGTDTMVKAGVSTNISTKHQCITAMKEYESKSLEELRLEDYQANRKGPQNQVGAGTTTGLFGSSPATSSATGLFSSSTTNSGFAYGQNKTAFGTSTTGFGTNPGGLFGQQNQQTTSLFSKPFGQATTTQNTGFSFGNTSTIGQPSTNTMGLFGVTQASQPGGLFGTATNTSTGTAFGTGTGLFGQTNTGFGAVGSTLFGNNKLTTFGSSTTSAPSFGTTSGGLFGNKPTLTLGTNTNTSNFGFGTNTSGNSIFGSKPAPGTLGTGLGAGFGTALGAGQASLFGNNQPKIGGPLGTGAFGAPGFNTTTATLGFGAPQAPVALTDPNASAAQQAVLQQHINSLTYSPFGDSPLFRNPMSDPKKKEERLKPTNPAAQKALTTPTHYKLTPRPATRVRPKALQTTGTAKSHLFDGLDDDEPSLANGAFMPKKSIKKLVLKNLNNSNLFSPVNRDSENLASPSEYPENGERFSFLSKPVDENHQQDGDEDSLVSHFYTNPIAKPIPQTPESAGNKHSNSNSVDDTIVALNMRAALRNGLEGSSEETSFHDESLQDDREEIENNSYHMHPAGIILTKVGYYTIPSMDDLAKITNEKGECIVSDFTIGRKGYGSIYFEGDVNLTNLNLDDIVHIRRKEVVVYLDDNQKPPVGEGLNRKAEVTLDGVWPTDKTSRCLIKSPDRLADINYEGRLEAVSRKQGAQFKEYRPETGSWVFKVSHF
UniProt O60318: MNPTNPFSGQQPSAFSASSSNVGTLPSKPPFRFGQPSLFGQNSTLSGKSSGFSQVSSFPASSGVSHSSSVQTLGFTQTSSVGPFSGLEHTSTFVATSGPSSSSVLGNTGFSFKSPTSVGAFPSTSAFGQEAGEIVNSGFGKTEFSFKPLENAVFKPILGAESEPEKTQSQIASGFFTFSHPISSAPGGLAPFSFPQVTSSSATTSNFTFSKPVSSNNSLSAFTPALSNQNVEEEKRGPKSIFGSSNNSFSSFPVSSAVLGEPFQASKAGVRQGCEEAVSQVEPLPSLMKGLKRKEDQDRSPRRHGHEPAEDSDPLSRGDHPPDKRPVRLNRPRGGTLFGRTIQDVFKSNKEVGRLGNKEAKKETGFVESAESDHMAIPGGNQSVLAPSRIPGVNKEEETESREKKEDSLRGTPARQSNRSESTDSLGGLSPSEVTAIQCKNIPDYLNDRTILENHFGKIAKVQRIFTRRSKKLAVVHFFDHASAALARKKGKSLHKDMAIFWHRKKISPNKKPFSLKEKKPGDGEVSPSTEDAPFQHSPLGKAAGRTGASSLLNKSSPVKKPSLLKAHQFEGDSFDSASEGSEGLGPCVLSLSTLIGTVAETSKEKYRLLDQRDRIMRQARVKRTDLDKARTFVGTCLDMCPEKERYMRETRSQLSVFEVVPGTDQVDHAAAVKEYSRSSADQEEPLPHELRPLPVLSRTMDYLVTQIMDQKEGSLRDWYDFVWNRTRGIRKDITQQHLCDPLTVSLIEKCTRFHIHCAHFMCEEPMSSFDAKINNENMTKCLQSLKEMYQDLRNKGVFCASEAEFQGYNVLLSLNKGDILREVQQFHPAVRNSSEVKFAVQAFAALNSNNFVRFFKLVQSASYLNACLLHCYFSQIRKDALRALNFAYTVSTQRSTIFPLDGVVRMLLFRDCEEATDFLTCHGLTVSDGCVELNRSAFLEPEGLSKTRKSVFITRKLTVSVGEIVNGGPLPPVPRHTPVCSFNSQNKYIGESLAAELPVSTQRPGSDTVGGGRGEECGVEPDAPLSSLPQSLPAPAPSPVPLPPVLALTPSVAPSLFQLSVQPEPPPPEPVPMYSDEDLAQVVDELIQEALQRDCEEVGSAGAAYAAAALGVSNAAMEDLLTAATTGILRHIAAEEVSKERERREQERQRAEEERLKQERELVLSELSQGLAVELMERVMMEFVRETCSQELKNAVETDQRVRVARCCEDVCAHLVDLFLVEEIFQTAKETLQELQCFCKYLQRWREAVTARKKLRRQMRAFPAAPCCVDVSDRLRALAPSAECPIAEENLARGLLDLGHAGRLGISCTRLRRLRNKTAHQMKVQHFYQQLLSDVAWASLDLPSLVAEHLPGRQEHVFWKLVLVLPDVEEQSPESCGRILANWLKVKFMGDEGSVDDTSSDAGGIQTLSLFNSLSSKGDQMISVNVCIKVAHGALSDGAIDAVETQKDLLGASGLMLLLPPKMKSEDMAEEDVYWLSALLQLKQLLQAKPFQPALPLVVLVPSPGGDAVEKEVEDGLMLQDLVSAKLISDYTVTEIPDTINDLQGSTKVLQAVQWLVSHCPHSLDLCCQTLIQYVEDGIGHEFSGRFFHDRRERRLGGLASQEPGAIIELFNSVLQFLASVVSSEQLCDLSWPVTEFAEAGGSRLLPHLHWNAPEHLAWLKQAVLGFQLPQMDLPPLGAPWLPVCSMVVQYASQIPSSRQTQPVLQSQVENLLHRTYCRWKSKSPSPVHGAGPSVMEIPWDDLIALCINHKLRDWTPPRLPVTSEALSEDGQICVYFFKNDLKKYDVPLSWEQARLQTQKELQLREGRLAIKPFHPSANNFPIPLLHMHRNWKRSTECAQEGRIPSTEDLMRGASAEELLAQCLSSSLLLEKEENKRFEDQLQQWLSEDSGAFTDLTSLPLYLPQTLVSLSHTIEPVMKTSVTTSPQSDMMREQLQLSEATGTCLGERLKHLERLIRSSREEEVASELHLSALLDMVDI

How the values were obtained:
GST-NXT1•His-NXF1 = biological target: T1, GST-NXT1•His-NXF1 (UniProt Q9UBU9); assay: pull-down; competition: 2 μM GST–NXT1•His–NXF1 (or GST) with 25 μl NUP98 or NUP153 transcription–translation reaction on GSH beads, 1 h RT, washed with TBS-T, then 2 and 8 μM His-NS1-BP, 1 h RT; Western blot; only the target purified
T1 sequence 1: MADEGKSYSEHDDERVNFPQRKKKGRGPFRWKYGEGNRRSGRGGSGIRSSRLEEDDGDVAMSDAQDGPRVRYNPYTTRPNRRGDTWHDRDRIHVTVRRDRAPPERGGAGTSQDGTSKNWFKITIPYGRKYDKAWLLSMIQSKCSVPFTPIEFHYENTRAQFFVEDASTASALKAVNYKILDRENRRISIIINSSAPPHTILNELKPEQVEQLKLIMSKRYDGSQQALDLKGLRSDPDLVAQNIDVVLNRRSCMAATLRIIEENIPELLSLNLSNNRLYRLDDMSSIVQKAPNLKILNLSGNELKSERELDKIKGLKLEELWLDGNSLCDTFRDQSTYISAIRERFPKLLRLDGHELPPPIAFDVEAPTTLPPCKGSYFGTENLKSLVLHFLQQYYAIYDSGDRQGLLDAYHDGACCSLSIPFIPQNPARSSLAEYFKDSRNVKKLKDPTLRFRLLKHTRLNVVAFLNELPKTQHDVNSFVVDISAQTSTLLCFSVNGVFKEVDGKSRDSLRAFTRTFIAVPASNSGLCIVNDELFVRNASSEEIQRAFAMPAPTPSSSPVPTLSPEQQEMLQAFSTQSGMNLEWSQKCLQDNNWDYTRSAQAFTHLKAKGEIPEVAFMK
T1 sequence 2: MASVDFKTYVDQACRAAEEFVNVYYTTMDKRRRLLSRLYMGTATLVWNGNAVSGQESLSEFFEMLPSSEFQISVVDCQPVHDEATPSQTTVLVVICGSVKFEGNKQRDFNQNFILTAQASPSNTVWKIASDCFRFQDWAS

3XFlag-NS1-BP (human) = biological target: T2, 3XFlag-NS1-BP (human) (UniProt Q9Y6Y0); assay: co-IP
T2 sequence: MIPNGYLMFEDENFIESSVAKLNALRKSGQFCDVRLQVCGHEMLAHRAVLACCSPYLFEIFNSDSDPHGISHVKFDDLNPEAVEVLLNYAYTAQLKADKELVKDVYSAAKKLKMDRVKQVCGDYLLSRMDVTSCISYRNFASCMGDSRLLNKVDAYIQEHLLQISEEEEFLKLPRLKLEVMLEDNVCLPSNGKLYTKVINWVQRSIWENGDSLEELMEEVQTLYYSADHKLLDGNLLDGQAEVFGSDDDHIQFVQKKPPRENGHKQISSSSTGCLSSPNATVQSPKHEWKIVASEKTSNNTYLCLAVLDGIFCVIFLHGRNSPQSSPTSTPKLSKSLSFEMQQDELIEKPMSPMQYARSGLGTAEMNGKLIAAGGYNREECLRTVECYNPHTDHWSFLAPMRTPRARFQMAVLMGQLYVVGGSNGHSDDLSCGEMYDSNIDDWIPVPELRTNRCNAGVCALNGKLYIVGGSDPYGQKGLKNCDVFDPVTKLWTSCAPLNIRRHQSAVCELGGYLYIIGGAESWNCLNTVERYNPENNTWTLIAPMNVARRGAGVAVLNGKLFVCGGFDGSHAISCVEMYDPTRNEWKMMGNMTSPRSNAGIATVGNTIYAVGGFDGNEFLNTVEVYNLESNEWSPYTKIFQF

[1] = biological target: T3, nuclear RNA export factor-1 (NXF1), endogenous in DLD-1 cells (human (endogenous in DLD-1)) (UniProt Q9UBU9); assay: proximity ligation; DLD1-HA-AID-GANP cells; anti-HA (GANP) and NXF1 antibodies
T3 sequence: T1 sequence 1

[2] = biological target: T4, GST-NS1-BP (full length) (human) (UniProt Q9Y6Y0); assay: pull-down; GST, GST-NS1-BP or GST-NS1-BP domains immobilised on GSH beads; 1 μM His–NXF1•NXT1; 20 mM Tris, 150 mM NaCl, 1 mM DTT, 1 mM EDTA, pH 7.5; room temperature, 30 min; NXF1 detected by Western blot; both purified
T4 sequence: T2 sequence

[3] = biological target: T5, GST-NS1-BP (Kelch) (human) (UniProt Q9Y6Y0); assay: as above
T5 sequence: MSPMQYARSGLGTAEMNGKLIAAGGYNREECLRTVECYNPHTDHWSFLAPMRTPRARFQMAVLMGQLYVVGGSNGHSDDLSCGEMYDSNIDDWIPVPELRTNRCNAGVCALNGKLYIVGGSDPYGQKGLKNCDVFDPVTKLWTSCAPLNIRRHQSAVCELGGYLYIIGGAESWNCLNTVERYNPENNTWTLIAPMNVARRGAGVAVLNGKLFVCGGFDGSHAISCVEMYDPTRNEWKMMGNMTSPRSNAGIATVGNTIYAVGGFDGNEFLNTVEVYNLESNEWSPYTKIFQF

[4] = biological target: T6, GST-NS1-BP (BTB-BACK) (human) (UniProt Q9Y6Y0); assay: as above
T6 sequence: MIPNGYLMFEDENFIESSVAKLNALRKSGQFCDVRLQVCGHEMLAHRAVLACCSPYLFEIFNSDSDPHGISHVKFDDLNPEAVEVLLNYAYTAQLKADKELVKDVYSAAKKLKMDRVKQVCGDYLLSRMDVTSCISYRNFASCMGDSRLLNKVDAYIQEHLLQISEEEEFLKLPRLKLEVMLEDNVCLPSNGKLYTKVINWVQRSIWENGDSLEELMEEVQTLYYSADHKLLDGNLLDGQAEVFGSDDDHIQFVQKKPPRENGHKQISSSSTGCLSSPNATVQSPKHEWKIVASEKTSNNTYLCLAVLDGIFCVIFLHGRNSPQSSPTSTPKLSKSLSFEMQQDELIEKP

binding (GST-NXT1•His-NXF1): binds
Molecule: Flag-NUP153 (from UniProt P49790 1-1475)

binding (GST-NXT1•His-NXF1): binds
Molecule: Myc-NUP98 (from UniProt P52948 1-880)

binding (3XFlag-NS1-BP (human)): no binding
Molecule: nucleoporin Nup98, endogenous (from UniProt P52948 1-880)

binding [1]: binds
Molecule: HA-AID-GANP (germinal center–associated nuclear protein) (from UniProt O60318 1-1980)

binding [2]: binds
binding [3]: binds
binding [4]: binds
B1: His-NXF1-NXT1 (complex, UniProt Q9UBU9 1-619; Q9UKK6 1-140)
chain 1: T1 sequence 1
chain 2: T1 sequence 2
